Test results reported in PMC9280087.
Results are given in words; binding and its absence hold for the method and conditions named. In cells and extracts the contact can be indirect. Some entries that bind do so weakly or less than the wild type.

Chains of the proteins cited; added tags and fusions are not shown.
UniProt P46940: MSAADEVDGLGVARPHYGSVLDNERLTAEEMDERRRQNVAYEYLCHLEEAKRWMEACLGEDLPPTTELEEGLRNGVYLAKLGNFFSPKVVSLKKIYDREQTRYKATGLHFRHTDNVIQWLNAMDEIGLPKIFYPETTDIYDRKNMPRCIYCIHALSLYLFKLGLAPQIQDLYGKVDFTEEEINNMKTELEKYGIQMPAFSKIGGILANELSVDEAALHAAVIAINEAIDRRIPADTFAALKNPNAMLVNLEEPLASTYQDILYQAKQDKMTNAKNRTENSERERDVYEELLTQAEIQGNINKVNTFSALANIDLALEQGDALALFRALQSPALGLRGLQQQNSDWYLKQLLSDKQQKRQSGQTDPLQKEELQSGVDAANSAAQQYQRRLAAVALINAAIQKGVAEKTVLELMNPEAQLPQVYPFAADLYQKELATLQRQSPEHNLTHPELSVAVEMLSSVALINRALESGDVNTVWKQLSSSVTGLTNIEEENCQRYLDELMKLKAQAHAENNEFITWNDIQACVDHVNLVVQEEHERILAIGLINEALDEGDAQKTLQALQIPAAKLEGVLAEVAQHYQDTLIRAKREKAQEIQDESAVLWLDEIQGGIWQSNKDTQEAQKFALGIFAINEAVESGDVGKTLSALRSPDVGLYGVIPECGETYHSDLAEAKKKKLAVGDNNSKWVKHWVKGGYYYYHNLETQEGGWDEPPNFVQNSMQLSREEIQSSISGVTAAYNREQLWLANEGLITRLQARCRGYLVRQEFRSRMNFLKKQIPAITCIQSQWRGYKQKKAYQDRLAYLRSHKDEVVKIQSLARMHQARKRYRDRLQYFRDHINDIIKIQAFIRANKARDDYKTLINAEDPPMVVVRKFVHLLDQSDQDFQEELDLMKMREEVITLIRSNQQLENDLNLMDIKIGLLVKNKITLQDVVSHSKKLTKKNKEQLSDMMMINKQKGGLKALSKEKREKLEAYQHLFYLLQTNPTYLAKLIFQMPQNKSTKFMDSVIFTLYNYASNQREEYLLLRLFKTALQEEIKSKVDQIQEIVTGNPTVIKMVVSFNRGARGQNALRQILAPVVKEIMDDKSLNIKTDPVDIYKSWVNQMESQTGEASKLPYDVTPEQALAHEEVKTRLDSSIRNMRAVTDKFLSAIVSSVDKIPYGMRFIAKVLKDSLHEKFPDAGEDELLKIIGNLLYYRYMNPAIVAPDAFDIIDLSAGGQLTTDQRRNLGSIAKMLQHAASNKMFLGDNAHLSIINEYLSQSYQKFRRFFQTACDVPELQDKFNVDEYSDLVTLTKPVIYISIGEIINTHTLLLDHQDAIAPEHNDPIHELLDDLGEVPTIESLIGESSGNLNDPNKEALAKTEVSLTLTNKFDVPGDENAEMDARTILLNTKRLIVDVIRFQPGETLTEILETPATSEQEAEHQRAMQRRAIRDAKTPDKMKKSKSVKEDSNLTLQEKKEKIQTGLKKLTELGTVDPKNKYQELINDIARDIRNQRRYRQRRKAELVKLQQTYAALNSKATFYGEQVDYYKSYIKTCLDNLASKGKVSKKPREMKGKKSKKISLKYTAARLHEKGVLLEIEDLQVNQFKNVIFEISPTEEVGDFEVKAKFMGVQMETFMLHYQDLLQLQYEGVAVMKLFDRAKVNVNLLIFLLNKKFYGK
UniProt P35222: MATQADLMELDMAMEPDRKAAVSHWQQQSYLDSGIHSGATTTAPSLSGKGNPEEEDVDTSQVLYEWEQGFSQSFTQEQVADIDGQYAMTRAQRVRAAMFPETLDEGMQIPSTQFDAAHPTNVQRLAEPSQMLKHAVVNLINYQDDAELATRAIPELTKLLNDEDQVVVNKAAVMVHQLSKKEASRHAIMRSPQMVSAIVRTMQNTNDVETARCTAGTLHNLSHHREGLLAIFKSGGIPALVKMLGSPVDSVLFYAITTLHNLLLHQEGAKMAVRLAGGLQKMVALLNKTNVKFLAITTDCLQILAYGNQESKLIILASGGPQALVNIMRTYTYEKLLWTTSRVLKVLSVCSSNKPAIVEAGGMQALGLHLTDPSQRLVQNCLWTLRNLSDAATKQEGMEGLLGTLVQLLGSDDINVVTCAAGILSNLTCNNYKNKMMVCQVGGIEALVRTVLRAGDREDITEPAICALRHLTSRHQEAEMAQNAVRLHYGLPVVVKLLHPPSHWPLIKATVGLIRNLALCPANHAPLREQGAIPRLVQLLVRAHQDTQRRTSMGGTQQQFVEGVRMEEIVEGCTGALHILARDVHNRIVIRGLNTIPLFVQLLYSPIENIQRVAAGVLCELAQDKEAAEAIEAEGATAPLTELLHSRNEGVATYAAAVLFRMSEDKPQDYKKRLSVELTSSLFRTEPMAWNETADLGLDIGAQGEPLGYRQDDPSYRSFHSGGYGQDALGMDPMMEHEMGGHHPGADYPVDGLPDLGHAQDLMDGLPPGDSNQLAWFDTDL

Target: IQ-GTPase-activating protein 1 (human (endogenous in A549)) (UniProt P46940)
Test: co-IP; A549 cell lysates (cells infected with WT or ΔompA A. baumannii, or transfected with pCMV-ompA) incubated with rabbit IgG or primary antibodies overnight at 4°C, protein A magnetic beads; Western blot; ratios of co-precipitated to precipitated protein quantified

- binding: binds
Substance: β-catenin (from UniProt P35222 1-781)
